## Screening data

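293T-iDUX4 dual-reporter cells; luminescence of the tet-on Italica luciferase control is read after 24 h. The test concentration is not given here. Percent change in the Italica control signal; more negative values mean stronger inhibition, which points to nonspecific, tet-on or cytotoxic effects.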

Values are in %. Common to all entries: measured here: Italica tet-on control reporter. Part of the compounds only, not a random draw; the main read-out is not listed here.

compound | activity change (%)
N#Cc1cccc(-c2ccc3c(c2)[C@@H]2[C@@H](CCN2C(=O)C2CCCCC2)[C@H](CO)N3)c1 | -62.22
COc1ccccc1C#Cc1ccc([C@@H]2[C@@H](CO)N3CCCCN(C(=O)C4CCC4)C[C@H]23)cc1 | -8.238
C[C@H]1CN([C@@H](C)CO)C(=O)c2ccccc2-c2ccccc2CO[C@H]1CN(C)C(=O)c1cc(Cl)cc(Cl)c1 | -57.06
Cc1ccc(-c2ccc(C3[C@@H]4CN(S(=O)(=O)c5ccccc5)C[C@H]3N4)cc2)cc1 (some centres not stated) | -6.964
O=C(CC1CC1)N1CC[C@@H]2[C@H](CO)Nc3ccc(-c4cccc(F)c4)cc3[C@@H]21 | -8.166
CC(C)COC(=O)N(C)C[C@H]1OCc2ccccc2-c2c(n(C)c3ccccc23)C(=O)N([C@H](C)CO)C[C@@H]1C | -13.28
O=C(C[C@H]1CC[C@H]2[C@@H](COC[C@H](O)CN2Cc2nccs2)O1)NCc1ccc(-c2ccccc2)cc1 | -38.54
O=C(Cc1ccccc1)N1CC(=O)N2[C@H](C1)[C@H](c1ccc(C#CCc3ccccc3)cc1)[C@@H]2CO | -3.688
OC[C@@H]1[C@@H](c2ccccc2)C2(CN(Cc3cc(F)ccc3F)C2)N1CC1CCCC1 | -16.15
OC[C@@H]1[C@H](c2ccccc2)C2(CN(Cc3ccccc3)C2)N1Cc1ccncc1 | -13.09
O=C1CN(S(=O)(=O)Cc2ccccc2)C[C@H]2[C@@H](c3ccc(C#Cc4ccccc4)cc3)[C@@H](CO)N12 | -0.2329
O=C(C[C@@H]1CC[C@H]2[C@@H](COC[C@H](O)CN2S(=O)(=O)c2ccc(F)cc2)O1)NCc1ccc(Cl)c(Cl)c1 | -19.47
C[C@@H]1CN([C@H](C)CO)C(=O)c2c(c3ccccc3n2C)-c2ccccc2CO[C@@H]1CN(C)S(=O)(=O)c1cccc(C#N)c1 | -11.55
CCCN1[C@@H]2c3ccc(-c4cccc(F)c4)c(=O)n3C[C@@H]2[C@@H](CO)[C@@H]1C(=O)N[C@@H](C)c1ccccc1 | -18.42
Cc1ccc(-c2ccccc2[C@@H]2[C@@H](C#N)N(C(=O)Cc3cccnc3)[C@@H]2CO)cc1 | -9.598
CN1c2ccc(C#Cc3cccnc3)cc2[C@@H]2[C@@H](CCN2C(=O)Cc2cccnc2)[C@H]1CO | -6.322
O=C(C[C@H]1CC[C@H]2[C@@H](COC[C@@H](O)CN2S(=O)(=O)c2ccccc2Cl)O1)N1CCC(Cc2ccccc2)CC1 | -15.67
O=C(C[C@@H]1C[C@H]2c3cc(NC(=O)Nc4ccccc4)ccc3O[C@H]2[C@H](CO)O1)NCc1ccccc1 | -1.893
Cc1ccccc1S(=O)(=O)N1CC[C@@H]2[C@H]1c1cc(-c3cccc(C#N)c3)ccc1N(C)[C@H]2CO | -35.95
C[C@H]1CN([C@@H](C)CO)C(=O)c2c(c3ccccc3n2C)-c2ccccc2CO[C@H]1CN(C)C(=O)NC1CCCCC1 | -54.43
O=C(Nc1ccccc1F)N1CCCCN2[C@H](CO)[C@@H](c3ccc(/C=C/c4ccccc4)cc3)[C@@H]2C1 | 8.172
C[C@@H]1CN([C@@H](C)CO)C(=O)c2c(c3ccccc3n2C)-c2ccccc2CO[C@H]1CN(C)Cc1cccc(F)c1 | -4.071
O=C(C[C@@H]1CC[C@@H]2[C@H](COC[C@H](O)CN2C(=O)c2ccccc2F)O1)N1CCN(c2ccccc2)CC1 | -6.322
COc1ccc2c3c(n(C)c2c1)[C@@H](CO)N(C(=O)c1cccc(F)c1)CC31CN(C(=O)c2cccc(F)c2)C1 | -30.22
COc1ccc2c3c([nH]c2c1)[C@H](CO)N(S(C)(=O)=O)CC31CCN(Cc2ccccc2)CC1 | -57.9
O=C(C[C@H]1C[C@@H]2c3cc(NC(=O)c4ccc5c(c4)OCO5)ccc3O[C@@H]2[C@@H](CO)O1)NCCc1ccccc1 | -15.99
COc1cccc(-c2ccc3c(c2)[C@@H]2[C@@H](CCN2C(=O)c2ccc(F)cc2)[C@H](CO)N3)c1 | -35.39
CN(C)C(=O)c1cccc(-c2ccc3c(c2)[C@@H]2[C@@H](CCN2C(=O)c2ccccc2F)[C@@H](CO)N3)c1 | -47.25
Cc1ccc(S(=O)(=O)N2CC[C@@H]3[C@H](CO)N(C)c4ccc(-c5ccc(C#N)cc5)cc4[C@@H]32)cc1 | -49.67
N#Cc1cccc(-c2ccc(C3[C@H]4CNC[C@@H]3N4Cc3ccc(F)cc3)cc2)c1 (some centres not stated) | -27.09
CS(=O)(=O)N1CC2(C1)[C@@H](c1ccccc1)[C@@H](CO)N2CC1CCCC1 | -1.121
O=C(Nc1ccc(F)cc1)N1CCCCN2[C@@H](CO)[C@@H](c3ccc(C#CC4CC4)cc3)[C@@H]2C1 | -28.19
C[C@H](CO)N1C[C@H](C)[C@@H](CN(C)C(=O)Nc2ccc(-c3ccccc3)cc2)OCc2ccccc2-c2c(n(C)c3ccccc23)C1=O | -4.408
O=C(Nc1ccc(F)cc1)N1C[C@H]2[C@@H](c3ccccc31)[C@H](CO)N2C(=O)Cc1ccccc1 | -8.128
CCC(=O)N1CC2(C1)CN(Cc1cc(F)ccc1F)[C@H](CO)c1[nH]c3cc(OC)ccc3c12 | -80.28
Cc1cccc(S(=O)(=O)N2CC[C@@H]3[C@H](CO)Nc4ccc(C5=CCCCC5)cc4[C@@H]32)c1 | -69.37
COc1ccc2c3c(n(C)c2c1)[C@@H](CO)N(C(C)=O)CC31CCN(Cc2ccc(Cl)cc2)CC1 | -71.41
C[C@H](C(=O)N(C)C[C@H]1OCc2ccccc2-c2c(n(C)c3ccccc23)C(=O)N([C@H](C)CO)C[C@H]1C)c1ccccc1 | -29.02
C[C@H](CO)N1C[C@H](C)[C@@H](CN(C)S(=O)(=O)c2ccc(C(F)(F)F)cc2)OCc2ccccc2-c2c(n(C)c3ccccc23)C1=O | -47.81
COc1ccc(-c2ccc3c(c2)[C@@H]2[C@@H](CCN2C(=O)c2ccc(F)cc2)[C@H](CO)N3C)cc1 | -39.5
COc1ccc2c3c(n(C)c2c1)[C@H](CO)N(C(=O)c1ccccc1)CC31CN(C)C1 | 9.32
C[C@H]1CN([C@@H](C)CO)C(=O)c2c(c3ccccc3n2C)-c2ccccc2CO[C@@H]1CN(C)Cc1ccc(O)cc1 | -7.813
COc1cccc(S(=O)(=O)N(C)C[C@@H]2OCc3ccccc3-c3c(n(C)c4ccccc34)C(=O)N([C@@H](C)CO)C[C@H]2C)c1 | -15.54
O=C(c1cccnc1)N1CC(=O)N2[C@@H](CO)[C@H](c3ccc(C#CCC4CCCC4)cc3)[C@@H]2C1 | -5.207
O=C(c1cccnc1)N1CC[C@@H]2[C@H]1c1cc(-c3cccc(F)c3)ccc1N[C@@H]2CO | -10.3
COc1cccc(C#Cc2ccc([C@H]3[C@@H](CO)N4C(=O)CN(C(=O)Cc5ccccc5)C[C@H]34)cc2)c1 | -7.145
COc1cccc(S(=O)(=O)N2CCCCN3[C@H](C2)[C@H](c2ccc(C4=CCCCC4)cc2)[C@@H]3CO)c1 | -35.08
C[C@@H](NC(=O)C[C@@H]1C[C@H]2c3cc(NC(=O)c4ccc5c(c4)OCO5)ccc3O[C@H]2[C@H](CO)O1)c1ccccc1 | -14.38

5 of the entries, repeated:

Result for COc1cccc(-c2ccc3c(c2)[C@@H]2[C@@H](CCN2C(=O)c2ccc(F)cc2)[C@H](CO)N3)c1 was activity change -35.39%.
Result for O=C(C[C@@H]1CC[C@@H]2[C@H](COC[C@H](O)CN2C(=O)c2ccccc2F)O1)N1CCN(c2ccccc2)CC1 was activity change -6.322%.
Result for COc1ccc2c3c(n(C)c2c1)[C@@H](CO)N(C(=O)c1cccc(F)c1)CC31CN(C(=O)c2cccc(F)c2)C1 was activity change -30.22%.
Result for C[C@H]1CN([C@@H](C)CO)C(=O)c2ccccc2-c2ccccc2CO[C@H]1CN(C)C(=O)c1cc(Cl)cc(Cl)c1 was activity change -57.06%.
Result for Cc1ccc(-c2ccc(C3[C@@H]4CN(S(=O)(=O)c5ccccc5)C[C@H]3N4)cc2)cc1 (some centres not stated) was activity change -6.964%.

From PubChem BioAssay record AID1224904 (Broad Institute, 2016).